Reference: article PMC7746861, “Acetate Metabolism in Archaea: Characterization of an Acetate Transporter and of Enzymes Involved in Acetate Activation and Gluconeogenesis in Haloferax volcanii” (Frontiers in Microbiology, 2020)
Results are given in words; binding and its absence hold for the method and conditions named.

Biological target: AMP-forming acetyl-CoA synthetase ACS7 from Haloferax volcanii, recombinant (Haloferax volcanii) (UniProt D4GQI5)
Test: SEC; Superdex 200 HiLoad column (1.6 x 60 cm), flow rate 1 ml per min, calibrated with HMW and LMW kits (GE Healthcare); native mass compared with the subunit mass by SDS-PAGE; 50 mM Tris-HCl, pH 7.5, 1.5 M KCl; both purified

B1: AMP-forming acetyl-CoA synthetase ACS7 from Haloferax volcanii, recombinant (enzyme, UniProt D4GQI5 1-664)
chain: MAQGDAELEARLAEQDEFEPTEEFVAQANVSDAGIYDEFEENWPDCWERAADLLDWDADYDEVLDDSNPPFYEWFTGGELNACYNCVDRHVENGDKNRVAIKWEGEHGETRTYTYQDLYREVNEFAAALRDLGVEEDDVVTLYMPMVPELPIAMLACARIGAPHNVVFAGFSAEALATRMNAADSRFLVTCDGYYRRGDPLDHLDKTNEGLDSVDHGVDATVVVDRLGDDGFDHDLKGNQHDWDDLLEAQSGERVAPVERDAEDMLFLMYTSGTTGQPKGVKHTTGGYLSYATWTSHAVLDIETEDTYWCSADIGWITGHSYIVYGPLALGSTTVMYEGTPDFPNRDRMWELVEKYAVDIFYTAPTAIRAFMKWGSKYPESRDLSSLRLLGTVGEPINPRAWKWYYEHIGNENCPVVDTWWQTETGGMMITTLPGVKNMKPGSAGPPLPGIDAQIVDTDGDEVEPGRAGYLTVNKPWPGMLRTLYDNDERYISEYWAEYSDTDSDDPDDWVYFPEDGAKVDEDGYITVLGRVDDVINVSGHRLGTMEIESAIVGVEGVAEAAVVGGNHEVKGEAVYAYVITEDGYEEGEDLRARIVEGVEDAIGPIARPEQVVFTPELPKTRSGKIMRRLLEDVANGAELGNTSTLRNPEIVGEIEAKVRAQSD
binding: no binding
